The text below walks through data of US5747247A, “Spectroscopic helicase assay” (The Regents of The University of California, priority 1994, dated 1998).

SMILES strings stand for the structures.

The data set relates to recBCD enzyme. The experiment in a line: Dye displacement fluorometric helicase assay (DNA unwinding followed by dye fluorescence). The format is biochemical, E. coli. Conditions: 250 nM DAPI; for Apparent binding stoichiometry of recBCD enzyme: 100 nM H33258, 300 nM TO. The protocol: Fluorometric helicase assay: The standard reaction buffer consisted of 25 mM Tris-acetate (pH 7.5), 1 mM Mg(OAc)2, and 1 mM DTT. When SSB protein was included, it was present at a 3-fold molar excess, assuming a site size of 15 nucleotides/monomer under stoichiometric conditions. This corresponds to a protein concentration which is 20% of the DNA (nucleotide) concentration. The DNA substrate was BamHI-digested pBR322 DNA, at a concentration of 10 uM nucleotide (2.1 nM ends).
The reaction (350 ul total volume) contained standard buffer, linear pBR322 DNA, and the indicated concentration of recBCD enzyme. […] The fluorescence signal due to these components was zeroed out. The fluorophore (either SSB protein or dye) was then added, and the reaction was allowed to equilibrate to the indicated temperature. Unwinding was initiated by the addition of ATP to 3 mM final concentration. […] For SSB protein fluorescence measurements, the value for 100% unwinding was calculated as described previously (28, 41). For dye fluorescence experiments, the value for complete unwinding was obtained by subtracting the fluorescence in the presence of an equimolar amount of ssDNA (i.e., heat-denatured pBR322) (FssDNA) from the fluorescence at the start of the reaction (FdsDNA). The difference in these values (FdsDNA -FssDNA) was taken to be the maximum fluorescence change possible if all of the DNA molecules were fully unwound (Fexp). The observed fluorescence change (Fobs) was divided by this differ ence to obtain the extent of unwinding. Initial rates were then calculated as described previously (28).
Fluorescence measurements were carried out on a Shimadzu RF5000U spectrofluorophotometer. When the intrinsic fluorescence of SSB protein was measured, the excitation and emission wavelengths were set at 290 and 340 nm, respectively. The excitation and emission wavelengths for the various dyes were determined experimentally in the presence of dsDNA. For AO, these values were 487 and 510 nm; for DAPI, 345 and 467 nm; for EB, 546 and 590 nm; for EHD, 552 and 596 nm; for H33258, 344 and 487 nm; and for TO, 504 and 528 nm. When SSB protein fluorescence was monitored, the band widths were 1.5 and 10 nm for the excitation and emission slits, respectively; for all of the dye fluorescence experiments, these values were 5 and 10 nm, respectively.
To determine whether the presence of dyes affected the observed rate of unwinding, the reaction (including SSB protein) was performed at several concentrations of DAPI, H33258, and TO. The reactions were performed at 20° C. in standard buffer with 10 uM nucleotide (2.1 nM ends) linear pBR322 DNA, 2 uM SSB protein, 0.5 nM total (0.17 nM functional) recBCD enzyme, and the indicated concentration of dye. Unwinding was initiated by adding ATP to a final concentration of 3 mM. […] For each dye (DAPI (.circle-solid.), H33258 (o), or TO (.tangle-solidup.), the initial rate of unwinding was determined as described in the Experimental Procedures and is plotted in panel B as a function of dye concentration. Due to the lag behavior illustrated in panel A, the data at concentrations ≤100 nM are considered unreliable, as indicated by shading this portion of the graph.
In FIG. 4A, raw data from an experiment in which recBCD enzyme concentration was varied at a given concentration of TO are shown; SSB protein was included to allow comparison to previous results. From results such as these, using either DAPI, H33258, or TO, the data in FIG. 4B were generated. Unwinding was performed as in FIG. 3, except that the concentration of recBCD enzyme was varied, and a constant concentration of fluorophore (250 nM for DAPI; 100 nM for H33258; and 300 nM for TO) was used. In panel A, a portion of the raw data obtained with TO are shown. The observed rates of unwinding derived from such experiments are shown in panel B. DAPI, .circle-solid.; H33258, o; TO, .tangle-solidup.. […]

Setting [1] is: with SSB protein, 20° C., SSB assay gives 2.9±0.2.

Consider `N=C(N)c1ccc(-c2cc3ccc(C(=N)N)cc3[nH]2)cc1`, for which the “Apparent binding stoichiometry of recBCD enzyme” value (shortened to “Apparent binding stoichiometry”) was found to be 3.5±0.1 molecules/end (SSB protein omitted) and 3.4±0.3 molecules/end under setting [1]. The “recBCD protein concentration at which saturation is achieved” value (with SSB protein, 2.1 nM DNA ends) turned out to be 7.1 nM.
As for `CN1CCN(c2ccc3[nH]c(-c4ccc5[nH]c(-c6ccc(O)cc6)nc5c4)nc3c2)CC1` [H33258, Hoechst 33258], the “Apparent binding stoichiometry” value by setting is: (SSB protein omitted) 2.8±0.3 molecules/end; under setting [1], 3.3±0.3 molecules/end.
For the molecule `CN1C(=Cc2cc[n+](C)c3ccccc23)Sc2ccccc21` [TO, thiazole orange], the “Apparent binding stoichiometry” value runs as follows: (SSB protein omitted) 2.7±0.2 molecules/end; under setting [1], 3.2±0.2 molecules/end.
